{
  "source": "patent US12428663B2",
  "about": "“Identification of DNA polymerase theta inactivation mechanism” (The Johns Hopkins University, priority 2018, dated 2025)",
  "molecules": {"B1": {"name": "wt28: wild type Pol θ catalytic core (residues 1792-2590) (protein, UniProt O75417 1792-2590, looked up, fragment)", "chain": "GFKDNSPISDTSFSLQLSQDGLQLTPASSSSESLSIIDVASDQNLFQTFIKEWRCKKRFSISLACEKIRSLTSSKTATIGSRFKQASSPQEIPIRDDGFPIKGCDDTLVVGLAVCWGGRDAYYFSLQKEQKHSEISASLVPPSLDPSLTLKDRMWYLQSCLRKESDKECSVVIYDFIQSYKILLLSCGISLEQSYEDPKVACWLLDPDSQEPTLHSIVTSFLPHELPLLEGMETSQGIQSLGLNAGSEHSGRYRASVESILIFNSMNQLNSLLQKENLQDVFRKVEMPSQYCLALLELNGIGFSTAECESQKHIMQAKLDAIETQAYQLAGHSFSFTSSDDIAEVLFLELKLPPNREMKNQGSKKTLGSTRRGIDNGRKLRLGRQFSTSKDVLNKLKALHPLPGLILEWRRITNAITKVVFPLQREKCLNPFLGMERIYPVSQSHTATGRITFTEPNIQNVPRDFEIKMPTLVGESPPSQAVGKGLLPMGRGKYKKGFSVNPRCQAQMEERAADRGMPFSISMRHAFVPFPGGSILAADYSQLELRILAHLSHDRRLIQVLNTGADVFRSIAAEWKMIEPESVGDDLRQQAKQICYGIIYGMGAKSLGEQMGIKENDAACYIDSFKSRYTGINQFMTETVKNCKRDGFVQTILGRRRYLPGIKDNNPYRKAHAERQAINTIVQGSAADIVKIATVNIQKQLETFHSTFKSHGHREGMLQSDQTGLSRKRKLQGMFCPIRGGFFILQLHDELLYEVAEEDVVQVAQIVKNEMESAVKLSVKLKVKVKIGASWGELKDFDV", "modifications": "catalytic core"}},
  "test_system": "primer-template complex 5",
  "assay": "Steady-state kinetic analysis of dA incorporation in 5 by Pol θ variants (polymerase activity)",
  "format": "biochemical",
  "experimental": "1.4.3. Steady-state kinetic analysis of dA incorporation in 5 by Pol θ. Polymerase reactions were conducted with Pol θ (432 pM for wild type Pol θ and 5 nM for K2383A and K2383R), 5′-^32P-5 (50 nM), and a range of dATP concentrations (0.25 μM-100 μM for wild type and 62.5-5000 μM for mutants) at 25° C. in reaction buffer (10 mM Tris HCl pH 8, 25 mM KCl, 10 mM MgCl2, 1 mM BME). The concentration range for dATP and the reaction time were selected so that reactions proceeded no further than 25% (single-hit conditions). In a typical experiment, a 2×DNApolymerase solution was prepared by mixing 5′-^32P-5 (500 nM, 18 μL), 10×reaction buffer (18 μL), 10×Pol θ (4.32 nM for wild type or 50 nM for mutants, 18 μL) in storage buffer (20 mM Tris HCl pH 7, 300 mM NaCl, 10% glycerol, 5 mM BME), and H2O (36 μL). The 2×DNAenzyme solution (3 μL) was mixed with the appropriate 2×dNTP solution (3 μL) to initiate the reaction. Reactions were incubated for 20 s for wild type Pol θ, 1.5 min for K2383R, and 4 min for K2383A, after which, they were quenched with 95% formamide loading buffer containing 25 mM EDTA (6 μL). An aliquot (4 μL) was analyzed by 20% denaturing PAGE run at 55 W for approximately 3.5 h. The gel was analyzed by phosphorimaging, and the data were fit to the Michaelis-Menten equation. The kcat was determined by dividing Vmax by the active concentration of enzyme. […]",
  "note": "At least one read-out could not be matched to a standard name with certainty.",
  "data": [
    {"molecule": "B1", "values": [
      {"measurement": "kcat/Km", "value": 13.6, "unit": "µM/min"}
    ]}
  ]
}
